Laboratory results from article PMC7053340.
Results are given in words; binding and its absence hold for the method and conditions named. In cells and extracts the contact can be indirect. Tags and fused reporters may be left off the sequences shown.

Target: Flag-CtBP2 (C-terminal-binding protein 2, from pcDNA3-2×Flag-CtBP2) (human), P56545
Test: co-IP; Flag-tagged and Myc-tagged plasmids co-transfected into HC-OA cells, 48 h, lysed, anti-Flag agarose and anti-c-Myc agarose 4°C 2 h, four washes with 1×RIPA; blots with anti-Flag and anti-Myc
Conditions: remark: other sources report otherwise

binding: no binding
B1: Myc-c-Jun (AP1 subunit, from pCDNA3-6×Myc-c-Jun), P05412 1-331 (protein)
chain: MTAKMETTFYDDALNASFLPSESGPYGYSNPKILKQSMTLNLADPVGSLKPHLRAKNSDLLTSPDVGLLKLASPELERLIIQSSNGHITTTPTPTQFLCPKNVTDEQEGFAEGFVRALAELHSQNTLPSVTSAAQPVNGAGMVAPAVASVAGGSGSGGFSASLHSEPPVYANLSNFNPGALSSGGGAPSYGAAGLAFPAQPQQQQQPPHHLPQQMPVQHPRLQALKEEPQTVPEMPGETPPLSPIDMESQERIKAERKRMRNRIAASKCRKRKLERIARLEEKVKTLKAQNSELASTANMLREQVAQLKQKVMNHVNSGCQLMLTQQLQTF
